Primary screen of a compound library

By UniProt entry, the sequences of proteins in these tests, tags left out.
UniProt E9BF75, entry or part of it: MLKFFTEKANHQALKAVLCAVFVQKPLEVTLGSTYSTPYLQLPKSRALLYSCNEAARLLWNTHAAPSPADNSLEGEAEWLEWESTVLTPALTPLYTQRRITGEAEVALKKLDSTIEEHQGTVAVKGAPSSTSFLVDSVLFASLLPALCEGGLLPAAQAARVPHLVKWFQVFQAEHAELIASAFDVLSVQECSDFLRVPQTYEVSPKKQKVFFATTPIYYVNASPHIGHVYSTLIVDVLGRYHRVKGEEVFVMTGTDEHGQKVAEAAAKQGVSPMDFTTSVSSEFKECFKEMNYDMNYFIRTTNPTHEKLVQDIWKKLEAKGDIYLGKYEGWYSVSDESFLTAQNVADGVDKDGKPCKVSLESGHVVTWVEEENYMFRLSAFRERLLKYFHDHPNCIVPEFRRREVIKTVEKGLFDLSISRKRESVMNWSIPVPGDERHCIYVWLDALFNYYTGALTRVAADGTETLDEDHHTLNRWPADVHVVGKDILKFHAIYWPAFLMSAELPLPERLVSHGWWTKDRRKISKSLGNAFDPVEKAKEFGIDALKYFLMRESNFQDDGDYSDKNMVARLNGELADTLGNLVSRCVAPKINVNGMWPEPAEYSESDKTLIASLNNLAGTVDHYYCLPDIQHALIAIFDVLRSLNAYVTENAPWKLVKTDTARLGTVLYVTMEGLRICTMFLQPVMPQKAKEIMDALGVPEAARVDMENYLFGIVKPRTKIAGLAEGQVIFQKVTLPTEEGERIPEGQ

Measurements from “University of Dundee, Small-Polar-MMV Screening Library” (2021), ChEMBL document CHEMBL3988442.

A: 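Assay on Mycobacterium tuberculosis, filed only as a heat shock assay from Cornell; the read-out is not stated. The concentration is filed as 10 mM, unlikely as a test dose, so the dose is not known. Higher reads as stronger inhibition (inferred: compounds with an IC50 in retests scored well above the rest). About 69,000 compounds were tested under these conditions; 1.4% (about 930) showed 50% or more at least once.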
B: 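Whole-cell assay for inhibitors of Mycobacterium tuberculosis growth, labelled Cornell in the record; the read-out is not stated. The concentration is filed as 10 mM, unlikely as a test dose, so the dose is not known. Higher means stronger inhibition (inferred from two other growth screens of the library). About 53,000 compounds were tested under these conditions; 1.7% (about 900) showed 50% or more at least once.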
C: 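Methionyl-tRNA synthetase (putative), Leishmania donovani (UniProt E9BF75). Primary screen of methionyl-tRNA synthetase; the read-out is not stated. The test concentration is not given. Values are per cent inhibition. Of about 68,000 compounds tested this way, about 24 (0.035%) reached 50% or more in at least one test.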

Results are percentages, as filed.
The record does not define 0% and 100%; most values in the screen are far below 50% and negative numbers occur (in some assays of this library far below -100).
Compounds were drawn at random from those tested, without regard to their results.

Result for CCn1cc2c(n1)CN(Cc1nccs1)CC2COCC1CC1.O=C(O)C(F)(F)F (stereo unspecified) was A: 3.982%. With O=C(Cn1cccn1)N1CCC(Cn2cc(-c3ccsc3)nn2)CC1 the screen gave A: 9.561%; C: 4.982%. For CCOc1ccc(C#N)cc1NC(=O)N1CCCC(NC(=O)CC)C1 (stereo unspecified) the result was A: -21.54%; C: 15.32%. With COCC1CN(Cc2csc(C)n2)Cc2nccn2C1.O=C(O)C(F)(F)F (stereo unspecified) the screen gave A: -28.46%; B: -12.3%. Result for Cc1cnn(CC2CN(Cc3ccc(-n4cccn4)cc3)CCO2)c1 (stereo unspecified) was A: -34.14%; C: 8.169%.

Cc1cc(-c2nn(C)c(Cl)c2CN2CCOC(C(=O)O)C2)no1 (stereo unspecified) read A: -11.32%; C: -7.143%. CN1CCN(CC(C)(C)C)CC1CCO (stereo unspecified) gave A: -43.7%; B: -8.609%; C: 14.83%. Result for Cc1nc(N2CCN(C)CC2)ncc1C(=O)N1CC[C@](C)(O)[C@H](C)C1 was A: -20.89%; B: 3.442%; C: -0.2584%. Result for Cc1nc(C)n(CC2CCCCN2CCCS(=O)(=O)N(C)C)n1 (stereo unspecified) was A: -8.975%; C: 2.536%. With Cc1nn(C)c2c(=O)n(CC(=O)NCc3ccccn3)ccc12 the screen gave A: 0.1166%; B: 26.93%; C: 10.59%.

CC(C)COCCC(=O)Nc1ccc2oc(=O)n(CCN(C)C)c2c1 gave A: -25.72%; B: -58.21%; C: -15.38%. Result for Cn1cc2c(n1)C(COCC1CC1)CN(Cc1ccccn1)C2 (stereo unspecified) was A: -19.75%; B: 1.57%; C: 17.85%. Result for CN(CCc1ccccc1)Cc1cc(C(=O)N2CCCC2(C)C)no1 was A: 1.859%; B: 32.22%; C: 4.5%. CC(C)Cc1noc(CN2CCOC(Cn3cncn3)C2)n1 (stereo unspecified) read A: 14.04%; B: 18.83%; C: 14.92%. With [H][C@@]12CNC[C@@]1([H])N(CC(C)C)C(=O)CO2 the screen gave A: 4.661%; B: -34.59%.

Result for OC1(CN2CCCCC2)CCN(c2cc(C(F)(F)F)ccn2)C1 (stereo unspecified) was A: -2.405%; C: 16.45%. With Cc1c(C(C)NC(=O)C2CCCC2)cnn1C (stereo unspecified) the screen gave A: -9.76%; C: 5.525%. Result for [H][C@@]12CN(S(=O)(=O)N3CCCC3)C[C@]1([H])N(CCc1cccc(Cl)c1)C(=O)O2 was A: -15.05%; B: 2.973%. O=C(O)C(F)(F)F.O=C(O)C(F)(F)F.c1ccc(CN2CCCC3(CCN(CC4CCCO4)CC3)C2)nc1 (stereo unspecified) gave A: 42.07%; B: -7.053%. NC(=O)N1CCCN(C2CCCCc3ccccc32)CC1 (stereo unspecified) gave A: 2.85%; B: -5.692%; C: 14.99%.

COc1cc(C(=O)NS(=O)(=O)c2cccc(C#N)c2)cc(OC)c1Br gave A: -8.929%; B: -4.098%; C: 3.073%. O=C1NCC2(CCCN(C(=O)c3ccc4c(c3)CCCO4)CC2)O1 (stereo unspecified) gave A: 6.677%; B: 0.5548%; C: 7.436%. Cn1cc(CCC(=O)NC(c2ccc(F)cc2)C(F)(F)F)cn1 (stereo unspecified) read A: 1.518%; C: -14.92%. O=C(c1cccnc1)N(CCO)Cc1cc(Br)ccc1F gave A: -19.45%; B: -9.903%; C: 5.898%. For CCOc1ccc(CN2CCN(C(=O)c3cc(C4CC4)[nH]n3)CC2)cc1 the result was A: -16.46%; B: -13.44%; C: 15%.

For CC(Cn1cncn1)NCc1n[nH]c2c1CCCCC2 (stereo unspecified) the result was A: -4.171%; B: 9.219%; C: 10.18%. For CC(NCC1CCS(=O)(=O)CC1)c1cccc(OC(F)F)c1 (stereo unspecified) the result was A: 14.53%; B: 5.968%; C: 5.852%. For OCCNC1CCc2cc3c(cc21)OCCO3 (stereo unspecified) the result was A: -26.42%; B: 24.95%; C: 3.436%. CC(NC(=O)Nc1cccnc1N1CCOCC1)c1ccccn1 (stereo unspecified) read A: -0.7301%; B: 29.24%; C: 9.946%. Result for CCOCc1nc2c(c(NC(CC)c3ccncc3)n1)CCNCC2 (stereo unspecified) was A: 8.47%; C: 11.72%.

With COc1cc(C(C)NCc2c[nH]nc2C)ccc1OCCO (stereo unspecified) the screen gave A: -13.54%; B: 37.65%; C: 8.273%. CC1CCCCN1CCNC(=O)c1scnc1Cl (stereo unspecified) read A: -5.471%; B: 4.226%; C: 5.714%.

Some entries from above, unchanged:

With COc1cc(C(C)NCc2c[nH]nc2C)ccc1OCCO (stereo unspecified) the screen gave A: -13.54%; B: 37.65%; C: 8.273%.
With COCC1CN(Cc2csc(C)n2)Cc2nccn2C1.O=C(O)C(F)(F)F (stereo unspecified) the screen gave A: -28.46%; B: -12.3%.
With CC(C)COCCC(=O)Nc1ccc2oc(=O)n(CCN(C)C)c2c1 the screen gave A: -25.72%; B: -58.21%; C: -15.38%.